Measurements as given in PubChem BioAssay AID652054 (National Center for Advancing Translational Sciences (NCATS), 2013).
Out of some 360,000 compounds screened, about 9,100 (2.5%) were called active. The shares of active, inactive and inconclusive entries below differ from those in the screen. Rule as the data show it: active = max response below about -50%; inconclusive = no clear call, values can overlap the other calls; inactive = above that.

Amino acid sequences for entries named in this document (tags omitted).
UniProt P35462, whole entry, looked up: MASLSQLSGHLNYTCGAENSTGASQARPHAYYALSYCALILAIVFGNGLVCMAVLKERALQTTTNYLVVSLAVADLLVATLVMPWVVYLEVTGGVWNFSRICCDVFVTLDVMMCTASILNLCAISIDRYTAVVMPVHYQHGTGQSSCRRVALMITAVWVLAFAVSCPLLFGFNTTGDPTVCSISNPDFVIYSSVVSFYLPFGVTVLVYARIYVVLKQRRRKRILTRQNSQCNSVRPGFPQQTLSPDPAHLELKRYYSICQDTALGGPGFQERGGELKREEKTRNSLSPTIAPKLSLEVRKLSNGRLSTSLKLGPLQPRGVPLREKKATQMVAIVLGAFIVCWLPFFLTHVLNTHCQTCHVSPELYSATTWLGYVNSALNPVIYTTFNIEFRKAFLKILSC

These compounds were tested against D(3) dopamine receptor (Homo sapiens) (UniProt P35462) (assay: qHTS of D3 Dopamine Receptor Antagonist: qHTS). Details: D3R cells, DiscoveRx beta-arrestin luminescence, antagonist mode; stronger effect = lower value.
Procedure, shortened: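 Cells expressing the human receptor were seeded at 1500 cells/well, incubated overnight at 37 degrees C in 5% CO2, then exposed to library compounds with dopamine controls for 90 minutes at 37 degrees C before luminescent detection.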
% is scaled to controls: 0 for no effect and ±100 for the full control effect.

Compound | max response, negative = inhibition
C#CCNC(=O)C1=C[C@H](c2ccccc2)[C@@H](CCCO)[C@H](OCC)O1 | inconclusive: -41.3%
CCN(CC)S(=O)(=O)c1ccc(C)c(NC(=S)Nc2cccc(S(=O)(=O)N3CCCCCC3)c2)c1 | inactive: -9.45%
CC1=NN(C(=O)Cc2ccc([N+](=O)[O-])cc2)C(O)(C(F)(F)C(F)(F)F)C1 (stereo unspecified) | inconclusive: -33.4%
CCOc1cc(Cl)c(S(=O)(=O)NCCCN2CCOCC2)cc1Cl | inconclusive: -41.7%
O=C(OCC(=O)N1CCCCCC1)c1cccc(Cl)c1Cl | inconclusive: -31.3%
COc1cc(C2C(C#N)=C(N)OC3=C2C(=O)CC(C)(C)C3)c([N+](=O)[O-])cc1OC (stereo unspecified) | inconclusive: -44.8%
COc1ccc(S(=O)(=O)N2CCC[C@H]2C(=O)N2CCC[C@H]2C(=O)NCc2ccncc2)cc1C | inactive: 29.3%
CC1=NN(c2ccccc2)C(=O)/C1=C/C=C/c1ccccc1 | inactive: -25.2%
COCCNCCCOc1ccc(Br)cc1Cl | active: -77.6%
CCc1nn(CC(=O)NCCCc2ccccc2)c(=O)c2cc3c(OC)cccc3n12 | inactive: 5.36%
O=c1c(Oc2ccccc2Br)c(C(F)(F)F)oc2c(CN3CCCC3)c(O)ccc12 | inconclusive: -45%
CC1CC(C)CN(CCC(=O)Nc2ccc3c(c2)CCC3)C1 (stereo unspecified) | inconclusive: -30.8%
COc1cc(C)c(Cl)c(C)c1S(=O)(=O)NC1CC(C)(C)NC(C)(C)C1 | inactive: 2.86%
CCC1CCCCN1Cc1nc2c(c(=O)n(C)c(=O)n2C)n1CC(C)C (stereo unspecified) | inconclusive: -38.5%
Clc1ccc(Cl)c(OCCCCN2CCCCC2)c1 | active: -106%
COc1c(Cl)cc(Cl)cc1CNCCNCC(C)O (stereo unspecified) | inconclusive: -32.1%
CC(C(=O)Nc1ccc([N+](=O)[O-])cc1)N1CCN(C/C=C/c2ccccc2)CC1 (stereo unspecified) | inconclusive: -47.6%
CCc1nc2ccc(C(=O)Nc3cc(-c4ccccc4)ccc3OC)cn2c1N(CC)CCN(C)C | inconclusive: -40.5%
CCCCN1C[C@H](CSC)[C@@H](CC(=O)Nc2ccc(Br)cc2)C1=O | inactive: -8.26%
C/C(=N\NS(=O)(=O)c1ccc(C)c([N+](=O)[O-])c1)c1cc2ccccc2o1 | active: -70.3%
O=C(NCC1CCCO1)c1cc2ccccc2nc1Cl (stereo unspecified) | inconclusive: -34.1%
Cc1ccc(C(=O)NC2CCCC(C)C2C)cc1S(=O)(=O)N1CCCCC1 (stereo unspecified) | inconclusive: -40.6%

Compound | max response, negative = inhibition
O=C(Nc1ccccc1Cl)C1C2CCC3C(CCC21)C3(Cl)Cl (stereo unspecified) | inactive: 0%
CCCCN(C)C(=O)Cn1nc(-c2ccc(Cl)cc2)ccc1=O | inconclusive: -35.9%
COc1ccc(-c2nc3c(C)cc(Br)cn3c2CC2CCCCC2)cc1OC | inactive: 8.88%
Cc1ccccc1NS(=O)(=O)c1ccc(C(=O)NCC(c2ccco2)N(C)C)cc1 (stereo unspecified) | active: -57.3%
COc1cc(NS(=O)(=O)c2ccc(C)cc2)c2ncccc2c1 | active: -55%
Cc1cc(C)n2c(SCC(=O)N(CCC#N)c3ccc4c(c3)OCCO4)nnc2n1 | inconclusive: -32.5%
Cc1cccc(C)c1NC(=O)CN1CCC(Cc2ccccc2)CC1 | active: -69.3%
CCOc1cc(-c2c(C#N)c(N)nc3c2CCc2ccccc2-3)ccc1O | inactive: 7.57%
CCCCNCCCOc1cccc(Cl)c1 | active: -80.2%
O=C(c1ccccc1)N1CCCC(c2nc3c(nnn3Cc3ccccc3)c(=O)[nH]2)C1 (stereo unspecified) | inconclusive: -37.6%
Cc1cccc(C)c1-n1nnnc1C1(C)CCC(=O)N1Cc1cccc(C(F)(F)F)c1 (stereo unspecified) | inconclusive: -37.8%
CCC(=O)N=c1ccn(C2=Nc3ccccc3NC2=C(C#N)C#N)cc1 | inconclusive: -35.7%
CCOC(=O)c1c(C)cc2c(CO)n[nH]c(=O)c2c1C | inactive: 7.85%
Nc1c(C(=O)c2ccccc2)sc(Nc2ccccc2)c1S(=O)(=O)c1ccccc1 | inconclusive: -43.7%
FC(F)Oc1ccccc1NC(=S)NCc1ccco1 | inconclusive: -31%
C=CCNC(=S)N1N=C(c2ccco2)CC1c1ccco1 (stereo unspecified) | inactive: 19.7%
CC(C)C[C@@H](CNCC(=O)[C@H](Cc1c[nH]c2ccccc12)NC(=O)c1[nH]cnc1C(=O)N[C@@H](C)CN)NC(=O)c1nc[nH]c1C(=O)N[C@@H](C)C(=O)O | inconclusive: -36.2%
Sc1nnc(-c2ccc(Cl)cc2)n1Cc1ccccc1 | inconclusive: -31.8%
Cc1nsc(Nc2ccc([N+](=O)[O-])cc2)c1C#N | inconclusive: -46.2%
CC(C)(C)n1nnnc1C(c1ccc(Cl)cc1)N1CCSCC1 (stereo unspecified) | inconclusive: -40.8%
CC(C)c1ccc(C(C)NC(=O)C2CCCC2)cc1 (stereo unspecified) | inactive: -4.19%
CCN(CC)c1c([N+](=O)[O-])c(=O)n(C)c2ccccc12 | inactive: 4.78%

An excerpt of these results, tab-delimited:
Compound	max response, negative = inhibition
Cc1ccccc1NS(=O)(=O)c1ccc(C(=O)NCC(c2ccco2)N(C)C)cc1 (stereo unspecified)	active: -57.3%
COc1cc(NS(=O)(=O)c2ccc(C)cc2)c2ncccc2c1	active: -55%

The list goes on.

Compound | max response, negative = inhibition
O=C1C=CC(=O)N1c1cccc(-c2ccccc2)c1 | inconclusive: -38.1%
O=C(NC1CCCCC1)N1CCCCCCC1 | inconclusive: -39.8%
O=c1[nH]c2ccccc2c2oc(CCl)nc12 | inactive: -16.7%
COc1cc(C(=O)N2CCCc3ccccc32)c([N+](=O)[O-])cc1OC | inactive: -6.02%
COc1ccc(OC)c(NC(=O)Cn2cnc3c(cnn3-c3ccccc3)c2=O)c1 | inactive: -20.5%
COc1ccc(OC)c(CN2CCC(CNC(=O)Nc3cccc(Cl)c3)CC2)c1 | inconclusive: -42.6%
NC(=O)c1ccc[n+](CC(=O)c2ccc(Cl)c(Cl)c2)c1 | inactive: 1.74%
CN(C)c1cccc(-c2cc(Nc3ccc(C(C)(C)C)cc3)ncn2)c1 | active: -54.6%
CCOC(=O)C1(CCOc2ccccc2)CCN(Cc2ccc(O)cc2)CC1 | inconclusive: -30%
C[C@@H]1CN([C@H](C)CO)C(=O)c2cc(C#CC(C)(C)O)cnc2O[C@@H]1CN(C)C(=O)C1CC1 | inactive: -4.61%
CC(=O)Nc1ccc(SCC(=O)NC(=O)c2ccc(S(=O)(=O)N(C)C)cc2)cc1 | inconclusive: -41.9%
O=C(c1ccc(-n2ccnc2)cc1)N1CCCC(CO)(Cc2cccc(Cl)c2)C1 (stereo unspecified) | inactive: 7.24%
Cc1ccc(S(=O)(=O)C(NC(=O)c2ccccc2)=C(Cl)Cl)cc1 | inconclusive: -35.2%
Cc1ccc2c(CN3CCN(Cc4ccccc4)CC3)cc(=O)oc2c1 | inconclusive: -38%
Cc1ccc(S(=O)(=O)CCC(=O)OCC(=O)NCCc2ccc(F)cc2)cc1 | inactive: 19.3%
O=C(CCC1CCCC1)N[C@@H](Cc1ccc(O)cc1)C(=O)O | inconclusive: -35.3%
Cc1cccnc1NC(=O)C1CCN(S(=O)(=O)c2cccs2)CC1 | inconclusive: -34%
O=C(COC(=O)CC1CCCC1)Nc1ccc(Cl)cn1 | inactive: 9.99%
CC(C)(C)C(c1nc2ccccc2[nH]1)n1c(-c2ccsc2)nc2ccccc21 (stereo unspecified) | inactive: 3%
O=C(NCc1cccnc1)c1cc(Sc2ccccc2Cl)nc2ccccc12 | inconclusive: -42.6%
CSCC[C@H](NC(=O)C1CCN(S(=O)(=O)c2ccc(C)cc2C)CC1)c1nc2ccccc2[nH]1 | inconclusive: -31.9%
O=C(O)C1CCCCC1C(=O)NCCc1ccc(Cl)cc1 (stereo unspecified) | inconclusive: -32.7%

Look-ups from above:
In max response, negative = inhibition, CN(C)c1cccc(-c2cc(Nc3ccc(C(C)(C)C)cc3)ncn2)c1 has active: -54.6%
In max response, negative = inhibition, Cc1ccc2c(CN3CCN(Cc4ccccc4)CC3)cc(=O)oc2c1 has inconclusive: -38%

(listing goes on)

Compound | max response, negative = inhibition
O=C1c2ccccc2C(c2nnnn2Cc2ccccc2)N1Cc1cccs1 (stereo unspecified) | inconclusive: -32.4%
CN(C)c1ccc(NC(=O)CN2CCN(S(=O)(=O)c3cc(Cl)ccc3Cl)CC2)cc1 | inconclusive: -40.4%
COc1ccc(Oc2nc(-c3ccccc3)ncc2S(=O)(=O)c2ccccc2)cc1 | inconclusive: -35.1%
Cc1[nH]c2ccccc2c1/C=N/Nc1ccccc1[N+](=O)[O-] | inconclusive: -46.4%
O=[N+]([O-])C(/C=C(/Cl)[N+](=O)[O-])=C(N1CCCCC1)N1CCCCC1 | inactive: -7%
N#Cc1ccsc1NC(=O)CN1CCN(S(=O)(=O)c2cc(Cl)ccc2Cl)CC1 | inconclusive: -32.6%
COc1cc(N=c2c([N+](=O)[O-])nn(-c3ccc4c(c3)OCCO4)n2O)cc(OC)c1 | inconclusive: -32.1%
CC1(C)C[C@H]2C3=CCC4[C@@]5(C)CC[C@H](O)C(C)(C)C5CC[C@@]4(C)[C@]3(C)[C@@H](O)[C@@H](O)[C@@]2(CO)[C@@H](O)[C@@H]1O (stereo partly specified) | inconclusive: -45.8%
Brc1ccc(/C=N/Nc2nc3ccccc3o2)cc1 | inconclusive: -32.6%
CCN(CC)S(=O)(=O)c1cccc(-c2nnc(SCCOc3ccccc3C)o2)c1 | inactive: -21.3%
COCCCNC(=S)NNC(=O)c1cccnc1 | inactive: -1.46%
O=C1NC[C@@H](CCCCN2C[C@H](Cc3ccc(O)cc3)N(CC3CCCCC3)C(=O)C2=O)N(Cc2ccccc2)C1=O | active: -75%
O=C(NCC1CCCO1)c1sc2cc(Cl)ccc2c1Cl (stereo unspecified) | inactive: 18.6%
COc1ccccc1C(=O)Nc1ccc(C(=O)/C=C/c2cccs2)cc1 | inactive: 13.3%
O=C(CN1C(=O)COc2ccccc21)NCCN1CCC(Cc2ccccc2)CC1 | active: -56.6%
Cc1ccnc(NC(c2cccnc2)c2ccc3cccnc3c2O)c1 (stereo unspecified) | inconclusive: -39.7%
O=C(c1nn(Cc2ccccc2)c(=O)c2ccccc12)N1CCN(C/C=C/c2ccccc2)CC1 | inactive: -6.12%
O=C(Nc1ccnn1C1CCN(CCCc2ccccc2)CC1)c1ccccc1Cl | inconclusive: -39.4%
CCCC(C)NC(=O)CSc1nc2ccc(C)cc2[nH]1 (stereo unspecified) | inactive: -4.82%
O=C(COc1ccc2ccccc2c1Br)N1CCN(c2ccccn2)CC1 | inconclusive: -30.1%
